Experimental data published in the supplement of paper PMC4635364.
Structures can show the parent of a compound that is named as a salt. The list shows a part of the results. This data set is noisy: repeats of one test often differ as much as different tests do.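 Human fetal ventral-midbrain neural progenitor line ReNCell VM, differentiated without mitogens. Images stained for doublecortin (early neurons) or tyrosine hydroxylase (dopaminergic neurons) were scored by blinded raters against untreated wells (0 = no change). Repeats and both raters were averaged, and compounds averaging 2 or higher were picked as hits for retesting.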

Columns and labels:
ReNCell VM [1] = experiment: neuronal differentiation score (DCX+ cell fraction vs untreated, manual image score) (score (-3 to 3)); higher = more neuronal differentiation; conditions: 2 uM, 2 weeks
ReNCell VM [2] = experiment: dopaminergic neuron differentiation score (TH+ cell fraction vs untreated, manual image score) (score (0 to 3)); higher = more TH+ dopaminergic neuron differentiation; conditions: 2 uM, 4 weeks, BDNF 10 ng/ml + GDNF 10 ng/ml

Question: Which results are given for `C=CCn1c(=O)c2c(nc(-c3ccc(S(=O)(=O)O)cc3)n2C)n(C)c1=O` [1-Allyl-3,7-dimethyl-8-p-sulfophenylxanthine]?
Answer: neuronal differentiation score (ReNCell VM [1]; library: LOPAC): inactive: 1; dopaminergic neuron differentiation score (ReNCell VM [2]; library: LOPAC): inactive: 0

Question: Which results are given for `CC1(C)C(=O)C=C[C@]2(C)[C@H]3CC[C@@]4(C)[C@H](c5ccoc5)OC(=O)[C@H]5O[C@]54[C@]3(C)C(=O)C[C@@H]12`?
Answer: neuronal differentiation score (ReNCell VM [1]; library: Spectrum): inactive: 0; dopaminergic neuron differentiation score (ReNCell VM [2]; library: Spectrum): inactive: 0

Question: `C=CC(C1=CC(=O)C(OC)=CC1=O)c1ccccc1` (stereo unspecified) was tested. Which neuronal differentiation score (ReNCell VM [1]; library: Spectrum) did it give?
Answer: inactive: 0

Question: What about the “dopaminergic neuron differentiation score” value (ReNCell VM [2]; library: Spectrum) of the same compound?
Answer: inactive: 0

Question: How did the neuronal differentiation score (ReNCell VM [1]; library: Phytochemical) turn out when `COc1cc2c(=O)c(-c3ccc(O)cc3)coc2cc1O[C@@H]1O[C@H](CO)[C@@H](O)[C@H](O)[C@H]1O` [Glycitin] was run?
Answer: inactive: 0

Question: And the “dopaminergic neuron differentiation score” value (ReNCell VM [2]; library: Phytochemical)?
Answer: inactive: 0

Question: `CC12CCC(C(=O)O)(C(=O)C1=O)C2(C)C` (stereo unspecified) was tested. Which neuronal differentiation score (ReNCell VM [1]; library: Natural) did it give?
Answer: inactive: 0

Question: And the “dopaminergic neuron differentiation score” value (ReNCell VM [2]; library: Natural)?
Answer: inactive: 0

Question: What does the source list for `COc1c(O[C@@H]2O[C@H](CO)[C@@H](O)[C@H](O)[C@H]2O)cc2c(c1OC)-c1ccc(OC)c(=O)cc1[C@@H](NC(C)=O)CC2` [Colchicoside]?
Answer: neuronal differentiation score (ReNCell VM [1]; library: Phytochemical): inactive: 0; dopaminergic neuron differentiation score (ReNCell VM [2]; library: Phytochemical): inactive: 0

Question: Which neuronal differentiation score (ReNCell VM [1]; library: Tocriscreen) does the source give for `Cc1c(C(=O)NC2CCCCC2)sc2nc3ccc(N)cc3n12` here?
Answer: inactive: 0

Question: And the “dopaminergic neuron differentiation score” value (ReNCell VM [2]; library: Tocriscreen)?
Answer: inactive: 0

Question: What does the source list for `CN1CCC[C@H]1c1cccnc1` [(-)-Nicotine hydrogen tartrate salt]?
Answer: neuronal differentiation score (ReNCell VM [1]; library: LOPAC): inactive: 0; dopaminergic neuron differentiation score (ReNCell VM [2]; library: LOPAC): inactive: 0

Question: With `OCC1OC(n2cnc3c(NC4CCCCC4)ncnc32)C(O)C1O` (stereo unspecified) [N6-Cyclohexyladenosine] as the compound, how does the neuronal differentiation score (ReNCell VM [1]; library: LOPAC) read?
Answer: inactive: -3

Question: What about the “dopaminergic neuron differentiation score” value (ReNCell VM [2]; library: LOPAC) of the same compound?
Answer: inactive: 0

Question: How did the neuronal differentiation score (ReNCell VM [1]; library: Natural) turn out when `C[C@H]1CCC2[C@](C)(CO)[C@@H](O)CC[C@]2(C)[C@@]12CCC(CO)(CCO)O2` (stereo partly specified) [9,13-epoxy-3,15,16,18-labdanetetrol] was run?
Answer: inactive: 0

Question: What about the “dopaminergic neuron differentiation score” value (ReNCell VM [2]; library: Natural) of the same compound?
Answer: inactive: 0

Question: Which results are given for `COc1ccc2c(=O)oc3c(OC)cc(CCN(C)C)c4c(=O)oc1c2c34` [taspine]?
Answer: neuronal differentiation score (ReNCell VM [1]; library: Natural): inactive: 0; dopaminergic neuron differentiation score (ReNCell VM [2]; library: Natural): inactive: 0

Question: How did the neuronal differentiation score (ReNCell VM [1]; library: Phytochemical) turn out when `COC(=O)/C(=C1/OC(=O)C(c2ccccc2)=C1O)c1ccccc1` [Vulpinic acid] was run?
Answer: inactive: 0

Question: And the “dopaminergic neuron differentiation score” value (ReNCell VM [2]; library: Phytochemical)?
Answer: inactive: 0

Question: How did the neuronal differentiation score (ReNCell VM [1]; library: Phytochemical) turn out when `C1CCN2C[C@@H]3C[C@@H](CN4CCCC[C@@H]34)[C@H]2C1` [Sparteine (-)] was run?
Answer: inactive: 0

Question: What about the “dopaminergic neuron differentiation score” value (ReNCell VM [2]; library: Phytochemical) of the same compound?
Answer: inactive: 0

Question: What does the source list for `NCC[C@H](O)C(=O)N[C@@H]1C[C@H](N)[C@@H](O[C@H]2O[C@H](CN)[C@@H](O)[C@H](O)[C@H]2O)[C@H](O)[C@H]1O[C@H]1O[C@H](CO)[C@@H](O)[C@H](N)[C@H]1O`?
Answer: neuronal differentiation score (ReNCell VM [1]; library: Spectrum): inactive: 0; dopaminergic neuron differentiation score (ReNCell VM [2]; library: Spectrum): inactive: 1

Question: Which neuronal differentiation score (ReNCell VM [1]; library: Spectrum) does the source give for `COc1ccc(C2CNC(=O)C2)cc1OC1CCCC1` (stereo unspecified) here?
Answer: inactive: 0

Question: What about the “dopaminergic neuron differentiation score” value (ReNCell VM [2]; library: Spectrum) of the same compound?
Answer: inactive: 0

Question: Which results are given for `Nc1nc(Cl)nc2c1ncn2[C@@H]1O[C@H](CO)[C@@H](O)[C@@H]1F` [Clofarabine]?
Answer: neuronal differentiation score (ReNCell VM [1]; library: Tocriscreen): inactive: 0; dopaminergic neuron differentiation score (ReNCell VM [2]; library: Tocriscreen): inactive: 0

Question: How did the neuronal differentiation score (ReNCell VM [1]; library: Tocriscreen) turn out when `Nc1ncnc2c1nc(Br)n2[C@@H]1O[C@@H]2COP(=O)(O)O[C@H]2[C@H]1O` [8-Bromo-cAMP, sodium salt] was run?
Answer: inactive: 0

Question: And the “dopaminergic neuron differentiation score” value (ReNCell VM [2]; library: Tocriscreen)?
Answer: inactive: 0

Question: For `CC1CC(OC(=O)c2ccccc2O)CC(C)(C)C1` (stereo unspecified), which neuronal differentiation score (ReNCell VM [1]; library: Spectrum) is on record?
Answer: inactive: 0

Question: What about the “dopaminergic neuron differentiation score” value (ReNCell VM [2]; library: Spectrum) of the same compound?
Answer: inactive: 0

Question: What does the source list for `NCCOB(c1ccccc1)c1ccccc1`?
Answer: neuronal differentiation score (ReNCell VM [1]; library: Spectrum): inactive: 0; dopaminergic neuron differentiation score (ReNCell VM [2]; library: Spectrum): inactive: 0

Question: What does the source list for `O=C(O)Cc1cccc(OCCCN(Cc2cccc(C(F)(F)F)c2Cl)CC(c2ccccc2)c2ccccc2)c1` [GW 3965 hydrochloride]?
Answer: neuronal differentiation score (ReNCell VM [1]; library: Tocriscreen): inactive: 0; dopaminergic neuron differentiation score (ReNCell VM [2]; library: Tocriscreen): inactive: 0

Question: Which results are given for `COc1ccc(C(=O)O)cc1` [Anisic acid]?
Answer: neuronal differentiation score (ReNCell VM [1]; library: Phytochemical): inactive: 0; dopaminergic neuron differentiation score (ReNCell VM [2]; library: Phytochemical): inactive: 0

Question: `CCN(CC)CCNC(=O)c1cc(Br)c(N)cc1OC` was tested. Which neuronal differentiation score (ReNCell VM [1]; library: Spectrum) did it give?
Answer: inactive: 0

Question: And the “dopaminergic neuron differentiation score” value (ReNCell VM [2]; library: Spectrum)?
Answer: inactive: 0

Question: How did the neuronal differentiation score (ReNCell VM [1]; library: Spectrum) turn out when `CC/C(=C(\c1ccccc1)c1ccc(OCCN(C)C)cc1)c1ccccc1` was run?
Answer: inactive: 0

Question: What about the “dopaminergic neuron differentiation score” value (ReNCell VM [2]; library: Spectrum) of the same compound?
Answer: inactive: 0

Question: What does the source list for `CC12CC3CC(C)(C1)CC(N)(C3)C2` [Memantine Hydrochloride]?
Answer: neuronal differentiation score (ReNCell VM [1]; library: Prestwick): inactive: 0; dopaminergic neuron differentiation score (ReNCell VM [2]; library: Prestwick): inactive: 0

Question: With `O=C(O)C1CCNCC1` [Isonipecotic acid] as the compound, how does the neuronal differentiation score (ReNCell VM [1]; library: LOPAC) read?
Answer: inactive: 0

Question: And the “dopaminergic neuron differentiation score” value (ReNCell VM [2]; library: LOPAC)?
Answer: inactive: 0

Question: With `CC(C)Cc1ccc([C@H](C)C(=O)O)cc1` [S-(+)-ibuprofen] as the compound, how does the neuronal differentiation score (ReNCell VM [1]; library: Prestwick) read?
Answer: inactive: 0

Question: What about the “dopaminergic neuron differentiation score” value (ReNCell VM [2]; library: Prestwick) of the same compound?
Answer: inactive: 0

Question: For `CC(C)c1c(O)ccc2c1CC[C@H]1C(C)(C)CCC[C@]21C`, which neuronal differentiation score (ReNCell VM [1]; library: Spectrum) is on record?
Answer: inactive: 0

Question: And the “dopaminergic neuron differentiation score” value (ReNCell VM [2]; library: Spectrum)?
Answer: inactive: 0

Question: `Cc1nnc(SCC2=C(C(=O)O)N3C(=O)[C@@H](NC(=O)Cn4cnnn4)[C@H]3SC2)s1` [Cefazolin sodium salt] was tested. Which neuronal differentiation score (ReNCell VM [1]; library: Prestwick) did it give?
Answer: inactive: 0

Question: And the “dopaminergic neuron differentiation score” value (ReNCell VM [2]; library: Prestwick)?
Answer: inactive: 0

Question: How did the neuronal differentiation score (ReNCell VM [1]; library: Spectrum) turn out when `Cn1c(=O)[nH]c2ncn(C)c2c1=O` was run?
Answer: inactive: 0

Question: What about the “dopaminergic neuron differentiation score” value (ReNCell VM [2]; library: Spectrum) of the same compound?
Answer: inactive: 0

Question: Which results are given for `O=C1[C@H](CC[C@H](O)c2ccc(F)cc2)[C@@H](c2ccc(O)cc2)N1c1ccc(F)cc1`?
Answer: neuronal differentiation score (ReNCell VM [1]; library: Spectrum): active: 3; dopaminergic neuron differentiation score (ReNCell VM [2]; library: Spectrum): inactive: 0

Question: For `CC(=O)Oc1c(C)cccc1C(=O)O`, which neuronal differentiation score (ReNCell VM [1]; library: Spectrum) is on record?
Answer: inactive: 0

Question: What about the “dopaminergic neuron differentiation score” value (ReNCell VM [2]; library: Spectrum) of the same compound?
Answer: inactive: 0

Question: With `CC(=O)O[C@]1(C(C)=O)CC[C@H]2[C@@H]3C=C(Cl)C4=CC(=O)CC[C@]4(C)[C@H]3CC[C@@]21C` [Chlormadinone acetate] as the compound, how does the neuronal differentiation score (ReNCell VM [1]; library: Prestwick) read?
Answer: inactive: 0

Question: What about the “dopaminergic neuron differentiation score” value (ReNCell VM [2]; library: Prestwick) of the same compound?
Answer: inactive: 0

Question: Which neuronal differentiation score (ReNCell VM [1]; library: Natural) does the source give for `CC(=O)C1(O)C(O)C[C@H]2[C@@H]3CCC4CC(O)CC[C@]4(C)[C@H]3CC[C@@]21C` (stereo partly specified) [3,16,17-trihydroxy-17-acetyl-androstane] here?
Answer: inactive: 0

Question: What about the “dopaminergic neuron differentiation score” value (ReNCell VM [2]; library: Natural) of the same compound?
Answer: inactive: 0

Question: With `C[C@@H]1CC[C@@]2(OC1)O[C@H]1C[C@H]3[C@@H]4CC=C5C[C@@H](O)CC[C@]5(C)[C@H]4CC[C@]3(C)[C@H]1[C@@H]2C` [diosgenin] as the compound, how does the neuronal differentiation score (ReNCell VM [1]; library: Natural) read?
Answer: active: 3

Question: And the “dopaminergic neuron differentiation score” value (ReNCell VM [2]; library: Natural)?
Answer: inactive: 0

Question: How did the neuronal differentiation score (ReNCell VM [1]; library: Spectrum) turn out when `CCCCCCCCCCCCCCCC[N+](C)(C)CCN(Cc1ccc(OC)cc1)c1ncccn1` was run?
Answer: inactive: 0

Question: And the “dopaminergic neuron differentiation score” value (ReNCell VM [2]; library: Spectrum)?
Answer: inactive: 1

Question: With `Cc1cc(/C=C/c2ccc3cc(N(C)C)ccc3[n+]2C)c(C)n1-c1ccccc1` as the compound, how does the neuronal differentiation score (ReNCell VM [1]; library: Spectrum) read?
Answer: inactive: 0

Question: What about the “dopaminergic neuron differentiation score” value (ReNCell VM [2]; library: Spectrum) of the same compound?
Answer: inactive: 0

Question: Which neuronal differentiation score (ReNCell VM [1]; library: Prestwick) does the source give for `Cc1cc2cc3c(C)cc(=O)oc3c(C)c2o1` [Trioxsalen] here?
Answer: inactive: 0

Question: What about the “dopaminergic neuron differentiation score” value (ReNCell VM [2]; library: Prestwick) of the same compound?
Answer: inactive: 1

Question: For `OCC(S)CS` (stereo unspecified), which neuronal differentiation score (ReNCell VM [1]; library: Spectrum) is on record?
Answer: inactive: 0

Question: And the “dopaminergic neuron differentiation score” value (ReNCell VM [2]; library: Spectrum)?
Answer: inactive: 0
